Test results taken from US20240409935A1, “Atg8ylation coordinates stress granule formation and mTOR inactivation in response to lysosomal damage” (priority 2023, published 2024).
These are yes or no findings as the source states them, for the method shown. In cells and extracts the contact can be indirect. Some entries that bind do so weakly or less than the wild type.

Protein sequences, listed by entry. Tags and fused reporters are not part of them. Residues count along the entry.
UniProt Q8WUM4, residues 362-702: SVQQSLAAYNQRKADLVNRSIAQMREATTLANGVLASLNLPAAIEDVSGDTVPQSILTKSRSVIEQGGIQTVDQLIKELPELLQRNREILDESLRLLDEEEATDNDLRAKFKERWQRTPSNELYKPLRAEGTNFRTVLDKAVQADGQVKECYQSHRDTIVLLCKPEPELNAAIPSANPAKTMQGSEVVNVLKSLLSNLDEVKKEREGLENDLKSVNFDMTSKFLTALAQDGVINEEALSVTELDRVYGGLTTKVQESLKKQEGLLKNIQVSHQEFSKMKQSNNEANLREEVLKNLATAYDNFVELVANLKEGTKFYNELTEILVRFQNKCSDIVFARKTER
UniProt P19525: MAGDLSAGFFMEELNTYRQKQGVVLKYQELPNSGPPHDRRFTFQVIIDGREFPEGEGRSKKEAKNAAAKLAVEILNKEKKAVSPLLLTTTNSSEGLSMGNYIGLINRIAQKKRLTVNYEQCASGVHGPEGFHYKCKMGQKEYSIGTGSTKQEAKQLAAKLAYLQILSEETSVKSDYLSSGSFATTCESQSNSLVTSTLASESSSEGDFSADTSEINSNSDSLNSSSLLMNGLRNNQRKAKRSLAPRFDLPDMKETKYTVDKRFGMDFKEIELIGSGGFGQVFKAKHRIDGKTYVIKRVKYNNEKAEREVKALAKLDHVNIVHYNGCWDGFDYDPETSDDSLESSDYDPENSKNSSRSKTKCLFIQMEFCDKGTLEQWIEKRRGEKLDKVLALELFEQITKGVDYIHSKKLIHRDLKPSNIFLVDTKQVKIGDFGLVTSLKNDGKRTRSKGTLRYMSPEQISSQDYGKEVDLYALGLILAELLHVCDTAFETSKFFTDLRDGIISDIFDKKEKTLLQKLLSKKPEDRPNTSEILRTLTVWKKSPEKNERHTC

Molecular target: FLAG-tagged V domain of ALIX (UniProt Q8WUM4)
Assay: co-IP with anti-FLAG from HEK293T cells expressing FLAG tagged ALIX constructs and Myc-PKR

- binding: binds
Substance: Myc-PKR (from UniProt P19525 1-551) (enzyme)
